Record: PubChem BioAssay AID504764 (Drosophila RNAi Screening Center, 2011)
In all, the deposit lists about 22,000 reagents; this is an unselected part of those that have a named target and a result. Over the whole deposit, 403 (1.9%) got an active call. 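Unnormalised raw counts per well; ratio z-scores behind the hit calls and whether each hit raises or lowers signal are not deposited.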 Entries without a mark were called inactive. Names joined by + are all predicted targets of the reagent. Reagent sequences are not shown. The record does not give: the amount of reagent.

- Purpose: 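Genome-wide screen for regulators of Notch-driven gene expression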 (primary screen)
- System: Drosophila Kc167 cells
- Knock-down reagent: long dsRNA against Drosophila genes
- Time to read-out: about 5 days (4 days dsRNA, then 24 h after transfection)
- Challenge: transfection of constitutively active membrane-tethered Notch lacking the extracellular domain, read 24 h later
- Measurement: 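Light from a Notch-responsive E(spl)m3 luciferase reporter under active Notch, with control-promoter and no-Notch reporter wells to normalise; raw counts from paired wells a and b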
- Reading the numbers: induced reporter light, run 1, well a and induced reporter light, run 1, well b: higher = more light from the Notch target reporter with active Notch; control promoter light, run 1, well a and control promoter light, run 1, well b: higher = more light from the viral control promoter (cell number, transfection, viability); uninduced reporter light, run 1, well a: higher = more light from the Notch target reporter without active Notch
- Hit rule: 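Hit if the duplicate-averaged log2 ratio of induced to control-promoter light gives a plate-wise z beyond ±2, or induced to uninduced beyond ±1.8; weak-control or discordant-duplicate wells dropped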
- Meaning of the calls: active = modifier hit (raised or lowered Notch signal); inactive = not a hit

The first 3 records as a preview:
no.	gene	dsRNA	induced reporter light, run 1, well a	induced reporter light, run 1, well b	control promoter light, run 1, well a	control promoter light, run 1, well b	uninduced reporter light, run 1, well a
1	CG8850	DRSC07287	1.05e5	89270	1.55e5	1.16e5	9690
2	mei-P22 (meiotic P22)	DRSC11366	1.65e5	1.63e5	2.60e5	1.76e5	8240
3	CG31211	DRSC14953	1.14e5	1.12e5	89785	82770	8300

The listing, from the first entry:
no.	gene	dsRNA	induced reporter light, run 1, well a	induced reporter light, run 1, well b	control promoter light, run 1, well a	control promoter light, run 1, well b	uninduced reporter light, run 1, well a
1	CG8850	DRSC07287	1.05e5	89270	1.55e5	1.16e5	9690
2	mei-P22 (meiotic P22)	DRSC11366	1.65e5	1.63e5	2.60e5	1.76e5	8240
3	CG31211	DRSC14953	1.14e5	1.12e5	89785	82770	8300
4	CG31211	DRSC15344	61300	65970	63630	52620	3635
5	DCX-EMAP	DRSC10012	1.32e5	1.39e5	2.12e5	1.45e5	8520
6	DCX-EMAP	DRSC10013	33505	25820	30835	39410	6388
7	l(3)73Ah (lethal (3) 73Ah)	DRSC11359	1.83e5	1.76e5	1.84e5	1.50e5	9700
8	gdl-ORF39 + gdl	DRSC11350	1.73e5	1.36e5	2.63e5	1.76e5	11065
9	CG31516	DRSC11994	2.46e5	2.47e5	3.20e5	3.29e5	19455
10	Dpck (Dephospho-CoA kinase)	DRSC12575	72040	85510	1.22e5	1.05e5	6500
11	ReepA (Receptor expression enhancing protein A)	DRSC04572	84800	96270	58045	62300	6805
12	P5cr-2 (Pyrroline-5-carboxylate reductase-like 2)	DRSC15889	2.42e5	2.04e5	2.16e5	1.95e5	17005
13	CG1979	DRSC12495	1.56e5	1.42e5	1.07e5	96315	11065
14	CG12729	DRSC17884	1.71e5	1.57e5	3.47e5	2.72e5	11585
15	TfIIA-L (Transcription factor IIA L)	DRSC16882	86490	89795	99380	1.08e5	7088
16	MnM (myomesin and myosin binding protein)	DRSC08423	1.34e5	1.54e5	2.55e5	1.71e5	9865
17	Prat (Phosphoribosylamidotransferase)	DRSC16797	1.31e5	1.30e5	85120	88970	10265
18	ogre (optic ganglion reduced)	DRSC18809	2.12e5	2.01e5	2.33e5	2.12e5	14705
19	CG31835 + CG42585	DRSC01412	96230	1.02e5	1.43e5	1.27e5	10740
20	neb (nebbish)	DRSC03577	3.25e5	3.32e5	3.54e5	3.04e5	21950
21	CG42521	DRSC10154	1.66e5	1.60e5	2.15e5	1.90e5	12135
22	Iml1 (Increased minichromosome loss 1)	DRSC08249	51315	50430	58760	82260	4430
23	Cpr78Cb (Cuticular protein 78Cb)	DRSC11847	1.47e5	1.15e5	1.15e5	1.25e5	6375
24	IntS11 (Integrator 11)	DRSC15407	1.59e5 (active)	1.87e5	2.78e5	2.34e5	26335
25	RpL35A (Ribosomal protein L35A)	DRSC12302	31185	33560	31730	28140	2020
26	CG13436	DRSC06396	1.20e5	1.37e5	2.31e5	2.02e5	8688
27	Irk3 (Inwardly rectifying potassium channel 3)	DRSC02047	1.42e5	82295	1.14e5	1.60e5	6778
28	CG14811	DRSC17962	1.15e5	1.08e5	2.03e5	1.59e5	7115
29	Tmf (TATA element modulatory factor)	DRSC18368	1.59e5	1.53e5	2.68e5	2.14e5	13200
30	CG6845	DRSC08576	1.17e5	1.36e5	2.07e5	2.26e5	10190
31	Phb2 (Prohibitin 2)	DRSC06512	95180	69670	1.39e5	1.33e5	7445
32	Cln3	DRSC10520	1.73e5	1.24e5	1.87e5	1.58e5	7640
33	Prat2 (Phosphoribosylamidotransferase 2)	DRSC09692	86145	1.12e5	76155	33045	7710
34	CG2909	DRSC18241	1.31e5	1.29e5	1.44e5	1.62e5	10195
